Results are given in words; binding and its absence hold for the method and conditions named. In cells and extracts the contact can be indirect. Some results given as binding are weak or reduced against the parent protein; the word gives no strength.
What was measured:
Assay in all cases: co-IP; performed as in Fig. 2A: HEK293T transfected; lysates; PAX5 and HATs, with or without PAX5-C co-expression (Fig. 3A)
[1] = molecular target: GCN5 (general control of amino acid synthesis 5) (UniProt Q92830)
[2] = molecular target: P/CAF (p300/CBP-associated factor) (UniProt Q92831)
[3] = molecular target: TIP60 (TAT-interacting protein 60-kD) (UniProt Q92993)

Protein sequences, listed by entry. Tags and fused reporters are not part of them.
UniProt Q92830: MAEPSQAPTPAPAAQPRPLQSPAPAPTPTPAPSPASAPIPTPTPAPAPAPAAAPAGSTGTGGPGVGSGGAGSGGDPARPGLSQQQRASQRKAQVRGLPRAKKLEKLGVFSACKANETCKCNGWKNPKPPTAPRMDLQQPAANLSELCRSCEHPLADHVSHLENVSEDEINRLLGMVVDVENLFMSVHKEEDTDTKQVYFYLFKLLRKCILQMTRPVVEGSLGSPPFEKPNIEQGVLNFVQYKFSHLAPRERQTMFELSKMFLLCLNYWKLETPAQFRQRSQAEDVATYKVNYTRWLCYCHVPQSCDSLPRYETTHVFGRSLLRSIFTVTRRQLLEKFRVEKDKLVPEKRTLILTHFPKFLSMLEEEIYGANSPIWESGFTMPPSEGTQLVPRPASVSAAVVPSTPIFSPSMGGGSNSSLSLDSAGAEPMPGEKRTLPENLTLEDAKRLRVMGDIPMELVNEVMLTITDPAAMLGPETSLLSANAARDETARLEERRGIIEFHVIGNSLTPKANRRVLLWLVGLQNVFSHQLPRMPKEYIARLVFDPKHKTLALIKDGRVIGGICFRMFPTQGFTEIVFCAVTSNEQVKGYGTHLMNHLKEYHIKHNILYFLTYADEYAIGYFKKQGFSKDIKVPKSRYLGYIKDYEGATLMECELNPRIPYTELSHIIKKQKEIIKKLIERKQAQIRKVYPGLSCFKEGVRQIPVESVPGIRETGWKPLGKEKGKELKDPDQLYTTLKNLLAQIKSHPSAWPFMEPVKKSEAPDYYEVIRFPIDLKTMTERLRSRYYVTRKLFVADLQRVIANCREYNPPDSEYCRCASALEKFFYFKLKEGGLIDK
UniProt Q92831: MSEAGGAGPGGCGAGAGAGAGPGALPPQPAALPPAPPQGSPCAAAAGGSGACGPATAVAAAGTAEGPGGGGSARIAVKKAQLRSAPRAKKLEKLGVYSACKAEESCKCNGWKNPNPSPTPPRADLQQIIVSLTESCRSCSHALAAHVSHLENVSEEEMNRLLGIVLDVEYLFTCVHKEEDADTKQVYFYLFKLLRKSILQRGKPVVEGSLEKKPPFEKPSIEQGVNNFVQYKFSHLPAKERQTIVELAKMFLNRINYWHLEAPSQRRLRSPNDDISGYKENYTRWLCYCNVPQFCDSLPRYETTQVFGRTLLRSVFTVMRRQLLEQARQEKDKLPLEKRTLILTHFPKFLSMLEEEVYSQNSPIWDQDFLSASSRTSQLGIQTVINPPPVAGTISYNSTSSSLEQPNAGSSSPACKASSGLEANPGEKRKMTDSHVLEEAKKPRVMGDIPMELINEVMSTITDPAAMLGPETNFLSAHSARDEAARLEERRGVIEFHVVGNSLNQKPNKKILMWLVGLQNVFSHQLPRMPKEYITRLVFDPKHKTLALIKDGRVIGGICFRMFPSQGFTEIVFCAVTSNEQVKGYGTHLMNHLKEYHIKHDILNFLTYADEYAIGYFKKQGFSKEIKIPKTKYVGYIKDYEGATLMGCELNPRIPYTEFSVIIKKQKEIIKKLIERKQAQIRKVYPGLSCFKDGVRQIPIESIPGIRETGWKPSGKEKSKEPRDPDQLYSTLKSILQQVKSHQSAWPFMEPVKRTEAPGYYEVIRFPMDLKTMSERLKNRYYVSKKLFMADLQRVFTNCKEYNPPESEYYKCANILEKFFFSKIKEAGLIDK
UniProt Q92993: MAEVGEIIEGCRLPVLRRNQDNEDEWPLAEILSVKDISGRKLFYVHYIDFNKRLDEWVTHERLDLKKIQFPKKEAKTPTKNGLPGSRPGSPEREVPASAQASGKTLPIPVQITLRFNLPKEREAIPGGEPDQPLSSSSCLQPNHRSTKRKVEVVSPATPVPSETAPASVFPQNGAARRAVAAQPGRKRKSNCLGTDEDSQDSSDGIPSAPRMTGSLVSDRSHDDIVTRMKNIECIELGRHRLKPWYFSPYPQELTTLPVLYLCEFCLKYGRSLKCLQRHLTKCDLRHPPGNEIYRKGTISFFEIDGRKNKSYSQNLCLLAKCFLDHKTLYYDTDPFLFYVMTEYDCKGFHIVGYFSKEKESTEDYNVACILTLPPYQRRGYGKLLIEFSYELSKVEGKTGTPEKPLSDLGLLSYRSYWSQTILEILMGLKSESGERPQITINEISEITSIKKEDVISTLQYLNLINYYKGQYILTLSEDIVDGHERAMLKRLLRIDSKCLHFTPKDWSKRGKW
UniProt Q02548: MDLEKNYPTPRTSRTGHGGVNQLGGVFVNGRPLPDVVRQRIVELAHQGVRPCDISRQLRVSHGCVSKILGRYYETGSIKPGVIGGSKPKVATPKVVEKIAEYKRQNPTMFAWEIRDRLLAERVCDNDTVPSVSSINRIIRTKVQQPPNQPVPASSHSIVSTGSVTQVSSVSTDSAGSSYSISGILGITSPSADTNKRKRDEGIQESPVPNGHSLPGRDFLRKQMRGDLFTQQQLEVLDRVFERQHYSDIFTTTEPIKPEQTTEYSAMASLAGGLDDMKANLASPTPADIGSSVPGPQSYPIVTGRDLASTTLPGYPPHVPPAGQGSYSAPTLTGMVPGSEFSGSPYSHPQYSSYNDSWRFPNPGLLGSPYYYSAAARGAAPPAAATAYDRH

Measured: binding

PAX5 (paired box gene 5) (from UniProt Q02548 1-391)
binds: all assays above

From PMC12582980
